Assay results from PubChem BioAssay AID2685 (National Center for Advancing Translational Sciences (NCATS), 2010).
Some of the results follow. Further columns of the screen follow, without active or inactive calls. Compounds called inactive in the main read-out are mostly missing here. Potencies come from curve fits of mixed quality, noted in brackets.

Test: qHTS Assay for Lipid Storage Modulators in Drosophila S3 Cells;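 as to cell number change: cells counted by Cell Tracker Red CMTPX staining in the red channel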
Conditions: BODIPY lipid droplet fluorescence, 18-24 h; for cell number change: measured here: cell count max response, cells fed with added oleic acid
Outline: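 Drosophila S3 cells loaded with oleic acid (400 uM, as added) and compounds at several concentrations; lipid droplets imaged by 488-nm laser-scanning cytometry, 500–530 nm intensity and object ratio to cell channel. Percent activity normalized to 20 uM Triacsin C.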

[1] = measured here: lipid fluorescence (Fed channel) AC50, cells fed with added oleic acid
[2] = measured here: cell number channel AC50, cells fed with added oleic acid

| Structure (SMILES) | cell number change [%] | AC50 [1] | AC50 [2] |
| --- | --- | --- | --- |
| Cc1ccc(C)c(-c2nnc(NC(=O)COc3ccccc3)o2)c1 | -8.75 | 3.26 µM [rising, partial curve] | – |
| Cn1c(C(C#N)C(=O)Cc2cccc3ccccc23)nc2ccccc21 (stereo unspecified) | -2.42 | 16.4 µM [rising, single point] | – |
| COCc1nnc(NC(=O)CS(=O)(=O)c2ccc(C)cc2)s1 | 23.5 | – | – |
| COCCCN=C1NN=C(c2cc(C)n(Cc3ccccc3Cl)c2C)CS1 | 28.9 | 1.16 µM [rising, full curve, poor fit] | 2.59 µM [rising, full curve, poor fit] |
| Cc1cc(O)ccc1N=Cc1c(C(F)(F)F)[nH][nH]c1=O | -22.3 | – | – |
| COc1ccc(NC(=O)c2ccccc2-c2ccccc2)cc1 | 22.8 | 4.11 µM [rising, single point] | 0.366 µM [rising, full curve, poor fit] |
| CC(C)Oc1ccc(S(=O)(=O)N2CCOCC2)cc1NC(=O)Cc1c(F)cccc1Cl | – | – | 2.91 µM [rising, partial curve] |
| COc1cccc(NC(=S)N2CCC(NC(=O)C3CCCCC3)CC2)c1 | 3.15 | 29.1 µM [falling, single point] | – |
| Cc1cccc(NNC(=O)C(=O)NNc2cccc(C)c2)c1 | 31.8 | 29.1 µM [rising, single point] | – |
| NC(=S)N/N=C/c1ccc(-c2cc(Cl)ccc2Cl)o1 | – | 0.259 µM [rising, full curve] | 0.092 µM [rising, full curve] |
| CCOC(=O)c1ccc(N=c2scc(C)n2CC)cc1 | 79.1 | – | 23.1 µM [rising, single point] |
| CN(C)c1ccc(C(=O)OCc2ccc(Br)cc2)cc1 | 120 | – | 29.1 µM [rising, single point] |
| COc1cc(/C=C/C(=O)NCc2ccccn2)cc(OC)c1OC | 29.9 | 10.3 µM [rising, partial curve, poor fit] | – |
| COC(=O)c1ccc(NS(=O)(=O)N(C)C)cc1 | -18.3 | 5.8 µM [falling, full curve, poor fit] | – |
| O=C(Nc1nc2ccccc2s1)c1cccc(S(=O)(=O)N2CCc3ccccc32)c1 | 7.41 | 6.51 µM [rising, partial curve] | – |
| Cc1ccc(NC(=O)CC(=O)Nc2ccc(C)c(C)c2)cc1C | – | 7.31 µM [rising, partial curve] | – |
| CC1CCCCC1NC(=O)CCNS(=O)(=O)c1ccc(Cl)cc1 (stereo unspecified) | 4.96 | 6.51 µM [rising, single point] | – |
| COc1cccc(CC2(CO)CCCN(Cc3cn[nH]c3-c3ccccc3)C2)c1 (stereo unspecified) | -19.8 | 0.164 µM [falling, full curve] | – |
| CCNC(=S)N/N=C(\C)c1ccc2c(c1)OCCO2 | 4.58 | 3.26 µM [rising, full curve, poor fit] | – |

| Structure (SMILES) | cell number change [%] | AC50 [1] | AC50 [2] |
| --- | --- | --- | --- |
| CC(OC(=O)CCCN=C1NS(=O)(=O)c2ccccc21)C(=O)Nc1ccccc1[N+](=O)[O-] (stereo unspecified) | -15.8 | 18.4 µM [falling, single point] | – |
| CC1(C)Cc2cccc(OCC(N)=O)c2O1 | 31.9 | 18.4 µM [rising, single point] | 32.6 µM [rising, single point] |
| COCCN(C(=O)COC(=O)C1CC1)c1c(N)n(Cc2ccccc2)c(=O)[nH]c1=O | -11.3 | – | – |
| CCCCN(Cc1cc2ccccc2[nH]c1=O)C(=O)c1ccccn1 | 58.9 | – | 29.1 µM [rising, single point] |
| COC1=C/C(=C/c2c(N)n3nc(CC(=O)N4CCCC4)sc3nc2=O)C=CC1=O | -10.1 | 5.8 µM [rising, single point] | – |
| CC(=O)NC1C(=O)N(C)c2ccc(Br)cc21 (stereo unspecified) | 0.413 | 2.06 µM [falling, partial curve] | – |
| CCOc1cc(S(=O)(=O)NC2CC(C)(C)NC(C)(C)C2)ccc1F | -33.1 | 13 µM [falling, single point] | 0.731 µM [falling, full curve] |
| COC(=O)C1=C(COc2ccc(C=O)cc2OC)NC(=O)NC1c1cc(C)ccc1C (stereo unspecified) | 57.5 | – | 29.1 µM [rising, single point] |
| O=C(Nc1nccs1)c1ccccn1 | -2.03 | – | 4.11 µM [falling, single point] |
| Brc1cccc(-c2n[nH]c(-c3ccccc3)n2)c1 | -54.5 | 14.6 µM [falling, single point] | 29.1 µM [falling, single point] |
| O=C(C[N+]1(CC#Cc2ccccc2)CCCCC1)c1ccccc1 | – | 0.092 µM [rising, full curve, poor fit] | – |
| Cc1nnc(Sc2cc(C(=O)NC3CC3)c3ccccc3n2)s1 | – | 0.13 µM [rising, full curve] | 0.184 µM [rising, full curve] |
| COc1ccc(Nc2nc(-c3sc(NC(C)=O)nc3C)cs2)cc1 | 8 | – | 0.731 µM [rising, single point] |
| Cc1ccc2cc(CN(CCN3CCOCC3)Cc3nnnn3Cc3ccco3)c(=O)[nH]c2c1C | 74.7 | – | 16.4 µM [rising, partial curve] |
| COc1ccc([N+](=O)[O-])cc1N(CC(=O)Nc1ccccc1C(=O)NC(C)C)S(C)(=O)=O | -6.37 | 0.517 µM [falling, full curve] | – |
| CC(=O)N(CC1CCCO1)C1(C(=O)NC2CCCC2)CCCCC1 (stereo unspecified) | 28.1 | – | 0.231 µM [rising, full curve, poor fit] |
| CC1(C)SC(=Nc2ccccc2)N(S(=O)(=O)c2ccccc2)C1=O | -11.8 | 0.0517 µM [falling, full curve, poor fit] | – |
| CCOc1nc(Nc2ccc(OC)c(Cl)c2)nc(OCC)n1 | 88.2 | 0.103 µM [rising, full curve] | 3.66 µM [rising, full curve] |
| COc1ccc(-n2c(NC(=O)c3ccco3)c(C#N)c3nc4ccccc4nc32)cc1 | -22.6 | 25.9 µM [falling, single point] | – |

Limited to AC50 [1] and cell number change [%] (two entries from above):
Structure (SMILES),AC50 [1],cell number change [%]
Cc1ccc2cc(CN(CCN3CCOCC3)Cc3nnnn3Cc3ccco3)c(=O)[nH]c2c1C,–,74.7
CC1(C)SC(=Nc2ccccc2)N(S(=O)(=O)c2ccccc2)C1=O,"0.0517 µM [falling, full curve, poor fit]",-11.8
